Source: paper PMC7905540

Legend:
[1] = system: T1, XreR2 (Photorhabdus luminescens DJC); assay: MST; details: recombinant protein, residues 1-69, protein details: His6-SUMO, cleaved off with Senp2, probe letters rebuilt from the primers and the genome
T1 sequence (looked up): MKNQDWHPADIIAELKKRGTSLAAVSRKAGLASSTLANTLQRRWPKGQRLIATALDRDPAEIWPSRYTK

[2] = system: T2, XreR1 (Photorhabdus luminescens DJC); assay: MST; details: recombinant protein, residues 1-78, protein details: His6-SUMO, cleaved off with Senp2, probe letters rebuilt from the primers and the genome
T2 sequence (looked up): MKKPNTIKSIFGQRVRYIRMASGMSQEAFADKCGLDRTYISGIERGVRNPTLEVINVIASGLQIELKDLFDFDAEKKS

[3] = system: T1, XreR2 (Photorhabdus luminescens DJC); assay: SPR; details: not quantifiable, 100-2500 nM, no saturation, lower affinity than XreR1; SPR (Biacore 3000, SA chip), proteins in dialysis buffer: 50 mM Tris/HCl pH 7.5, 10% glycerol, 500 mM NaCl, 2 mM beta-mercaptoethanol; 25 C; 30 ul/min; 1:1 binding fit; recombinant protein; residues 1-69; protein details: His6-SUMO, cleaved off with Senp2; label: 5'-biotin (SPR); probe letters rebuilt from the primers and the genome

Sequence	binding result ([1]; label: 5'-Cy5)	binding result ([2]; label: 5'-Cy5)	binding result [3]	binding result ([1]; label: 5'-biotin (SPR))	binding result ([2]; label: 5'-biotin (SPR))
ATTAGCCATCCATTTAATGGGGTAACTTCAACTTAAATTATTGTTTAATCATCTTGCAAACTGGTTGTACCAATATTTGCTTCTTGTATTTTTATGTTACAACGATAAAAATAAAAAGAATATCCAGAAAATAAGATTTTTTATTATAATAATCTCAATCTATAAGTTTCGTTAGAAATAATAACGCCCTGAATTTTATGCTCAAAACTATTAATGTAACTTCGCGCTCATAAATATAATTCCTGTTCCATTTGTAATGTCTGTAAAATAGCAAAGGAAACTTTTTATATCAACAAAATTTATTAATAAAAATTTAAATTAAAGAAATCAAGCTCTTCTTTATATACAAA (double strand) [PluxC]	no binding	no binding	–	–	–
CGTGTTAGGTTTTTTCATTCGATAAGTATCGAACGATGTTACTTATCAAACCACGGACTATAAGTCACGTTTTCCTGTAACTCGTGTTACTAATATGACTTACCGCAAAAATACGATGAATGATATTTTAATAACAAAGTGATCTTGTCATTGGGAGGATTAAAACGCTCAATTATCATGGCACAAAAGGCATATATAGCTTCTCTTATCATTCGCTTCCTTAATGGCATAGACGCTACCGCCTTTGTTTGGGATTACGCCAAACAAATATAACGTTACAAACCAAAAATATGAAAAATCTTCGAACACATTAATTAAATTAATTTATTTTATCAAGAAATTTGCCAATCTGGTCGCAAGTATTATTTATTAAG (double strand) [PxreR1]	–	–	binds	binds	binds
CTGAACTATTCCTATCGTTATTTATACCCGTCATCTTTCAAGTTGCCTCTTTGTTGGCCGCACTCGGTCACATCGTTATCTATGCTACCGGGGATTCACTCCCTTGCCGTCATGATACATCTTGAAATCTATAGGGTATATATTATTGCTATTCACGGAAAAACACGATTACCCCTAACAAGCATTATTCATAAATTAGTGACAGTTTTTGTCAGCATTTACGAAAAATATTAACCTTTTCACGTAAAGAACAATAATATATCGGTGTTACATTTACAATAACTTATAATACCAAAACACTTTATCATGTCACTATACAAATTCATACTTTCTGACTAATCAGAAAATAAAATAAAGGGTCAGCAATAATTTCTGCATTA (double strand) [PantA]	no binding	no binding	–	–	–

For some of these results: No signal at the amounts used counts as a negative. Protein sequences can lack the tags named with them.
